{
  "source": "paper PMC10561026",
  "binders": {"B1": {"name": "RodA^A234T (enzyme, UniProt P0ABG7 2-370)", "chain": "TDNPNKKTFWDKVHLDPTMLLILLALLVYSALVIWSASGQDIGMMERKIGQIAMGLVIMVVMAQIPPRVYEGWAPYLYIICIILLVAVDAFGAISKGAQRWLDLGIVRFQPSEIAKIAVPLMVARFINRDVCPPSLKNTGIALVLIFMPTLLVAAQPDLGTSILVALSGLFVLFLSGLSWRLIGVAVVLVAAFIPILWFFLMHDYQRQRVMMLLDPESDPLGAGYHIIQSKITIGSGGLRGKGWLHGTQSQLEFLPERHTDFIFAVLAEELGLVGILILLALYILLIMRGLWIAARAQTTFGRVMAGGLMLILFVYVFVNIGMVSGILPVVGVPLPLVSYGGSALIVLMAGFGIVMSIHTHRKMLSKSV"}, "B2": {"name": "RodA^K243N (enzyme, UniProt P0ABG7 2-370)", "chain": "B1 chain with T233A, K242N"}, "B3": {"name": "RodA (enzyme, UniProt P0ABG7 2-370)", "chain": "B1 chain with T233A"}},
  "note": "Substitutions are numbered along the chain they refer to. Names may count otherwise. No constants are given. Whether binding was seen depends on the method and setting. Some results given as binding are weak or reduced against the parent protein; the word gives no strength.",
  "data": [
    {"biological_target": "T1, penicillin-binding protein (PBP) 2 (E. coli) (UniProt P0AD65)", "T1 sequence": "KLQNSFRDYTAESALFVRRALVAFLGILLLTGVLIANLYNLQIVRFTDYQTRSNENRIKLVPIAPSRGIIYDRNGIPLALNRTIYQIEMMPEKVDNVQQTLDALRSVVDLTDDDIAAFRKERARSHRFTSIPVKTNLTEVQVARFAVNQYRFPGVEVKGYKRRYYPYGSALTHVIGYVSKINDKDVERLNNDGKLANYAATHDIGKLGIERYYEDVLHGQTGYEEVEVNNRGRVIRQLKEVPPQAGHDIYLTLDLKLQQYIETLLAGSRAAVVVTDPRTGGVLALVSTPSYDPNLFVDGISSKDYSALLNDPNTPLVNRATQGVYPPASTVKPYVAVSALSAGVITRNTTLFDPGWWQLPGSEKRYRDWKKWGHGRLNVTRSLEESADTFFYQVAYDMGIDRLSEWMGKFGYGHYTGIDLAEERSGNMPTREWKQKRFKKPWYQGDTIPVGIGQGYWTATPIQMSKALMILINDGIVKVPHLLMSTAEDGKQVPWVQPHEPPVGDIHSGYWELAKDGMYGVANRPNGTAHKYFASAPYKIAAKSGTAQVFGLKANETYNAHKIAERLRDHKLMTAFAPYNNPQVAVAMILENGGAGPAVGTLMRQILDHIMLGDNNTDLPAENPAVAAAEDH", "experiment": "two-hybrid; bacterial two-hybrid (BACTH): proteins fused to the T18 or T25 fragment of adenylate cyclase in DHM1 cells, streaked on a plate with X-gal, 37°C overnight; Miller units, average of two independent experiments", "values": [
      {"binder": "B1", "binding": "binds"},
      {"binder": "B2", "binding": "binds"},
      {"binder": "B3", "binding": "no binding"}
    ]}
  ]
}
